# For some assays here: Tags and fusion partners may be left off the protein sequences shown. For some assays here: Construct, isoform or probe ends are uncertain for at least one entry.
# How the values were obtained:
# Test in all cases: activity assay
# [1] = tested on: BbvCI #1-35 nicking mutant; details: SDA product 110-130 bp; 10 mM MgCl2, 50 mM KCl, 45 C; purified recombinant protein
# [2] = tested on: BbvCI #2-12 nicking mutant; details: SDA product 110-130 bp; 5 mM MgCl2, 50 mM KCl, 45 C; purified recombinant protein
# [3] = tested on: BsrFI restriction endonuclease; details: SDA product 150-500 bp, none without BsrFI; 2.5 mM MgCl2, 0-50 mM KCl, 55 C; purified native protein
# [4] = tested on: T1, N.BstNBI nicking endonuclease (Bacillus stearothermophilus 33M); details: purified recombinant protein
# T1 sequence: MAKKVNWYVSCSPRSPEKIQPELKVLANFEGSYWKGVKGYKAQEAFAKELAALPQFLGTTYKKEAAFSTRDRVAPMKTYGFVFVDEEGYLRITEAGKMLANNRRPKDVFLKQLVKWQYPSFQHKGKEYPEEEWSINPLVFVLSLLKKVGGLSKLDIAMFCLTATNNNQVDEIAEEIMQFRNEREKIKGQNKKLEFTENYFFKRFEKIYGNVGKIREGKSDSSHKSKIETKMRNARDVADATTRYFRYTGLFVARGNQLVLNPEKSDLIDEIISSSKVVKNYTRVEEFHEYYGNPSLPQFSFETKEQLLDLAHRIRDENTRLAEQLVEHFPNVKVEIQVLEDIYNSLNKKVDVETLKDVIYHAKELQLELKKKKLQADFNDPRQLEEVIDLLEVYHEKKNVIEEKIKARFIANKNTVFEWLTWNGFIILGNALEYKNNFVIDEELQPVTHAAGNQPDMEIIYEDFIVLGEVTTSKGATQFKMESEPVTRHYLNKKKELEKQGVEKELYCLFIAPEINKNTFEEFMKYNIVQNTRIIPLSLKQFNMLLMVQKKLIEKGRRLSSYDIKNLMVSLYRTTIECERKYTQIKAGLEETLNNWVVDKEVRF
# [5] = tested on: N.MlyI nicking endonuclease; details: SDA product 110-130 bp; 5 mM MgCl2, 50 mM KCl, 53 C; purified recombinant protein
# [6] = tested on: N.AlwI nicking endonuclease; details: SDA product 110-130 bp; 10 mM MgCl2, 0 mM KCl, 53 C; purified recombinant protein
# [7] = SDA product 110-130 bp, 10 mM MgCl2, 100 mM KCl, 53 C
# [8] = SDA with Bst DNA Pol gave 160 bp product, 2.5 mM MgCl2, 100 mM KCl, 55 C
sequence,measurement,setting,value
ACCGCATCGAATATGTATCGCCCTCAGCTACGACGGCCAGTG (double strand) [P49 forward],activity on this sequence,[1],active
ACCGCATCGAATATGTATCGCGCTGAGGTACGACGGCCAGTG (double strand) [P51 forward],activity on this sequence,[2],active
ACCGCATCGAATGCATGTACCGGCTACGACGGCCAGTG (double strand) [P13 forward],activity on this sequence,[3],active
ACCGCATCGAATGCGAGTCATGTTACGACGGCCAGTG (double strand) [P33 forward],activity on this sequence,[4]; [7],active
same,activity on this sequence,[5],active
ACCGCATCGAATGCGAGTCGAGGACGACGGCCAGTG (double strand) [SDA primer 40 site],activity on this sequence,[4]; [8],active
ACCGCATCGAATGCGGATCATGTTACGACGGCCAGTG (double strand) [P47 forward],activity on this sequence,[6],active
CGATTCCGCAATGCGAGTCGAGGCCATGATTACGCCAA (double strand) [SDA primer 41 site],activity on this sequence,[4]; [8],active
CGATTCCGCTCCAGACTTACCGGCTCCATGATTACGCCAA (double strand) [P14 reverse],activity on this sequence,[3],active
CGATTCCGCTCCAGACTTATCCCTCAGCTCCATGATTACGCCAA (double strand) [P50 reverse],activity on this sequence,[1],active
CGATTCCGCTCCAGACTTATCGCTGAGGTCCATGATTACGCCAA (double strand) [P52 reverse],activity on this sequence,[2],active
CGATTCCGCTCCAGGAGTCACTTTCCATGATTACGCCAA (double strand) [P34 reverse],activity on this sequence,[4]; [7],active
same,activity on this sequence,[5],active
CGATTCCGCTCCAGGGATCACTTTCCATGATTACGCCAA (double strand) [P48 reverse],activity on this sequence,[6],active
